Laboratory results reported in publication doi:10.1101/2021.06.15.448540.
Numbering of substitutions follows the chain as printed. No constants are given. Whether binding was seen depends on the method and setting. Some binding calls cover weakened binding; strength is not graded here.

What was measured:
Assay in all cases: MST
[1] = molecular target: T1, FhuCB with FhuB D170 and Q171 mutated to Ala (Escherichia coli) (UniProt P07821+P06972)
T1 sequence (chain, His-tag labeled with the red-tris-NTA 2nd generation dye (in the MST)) 1: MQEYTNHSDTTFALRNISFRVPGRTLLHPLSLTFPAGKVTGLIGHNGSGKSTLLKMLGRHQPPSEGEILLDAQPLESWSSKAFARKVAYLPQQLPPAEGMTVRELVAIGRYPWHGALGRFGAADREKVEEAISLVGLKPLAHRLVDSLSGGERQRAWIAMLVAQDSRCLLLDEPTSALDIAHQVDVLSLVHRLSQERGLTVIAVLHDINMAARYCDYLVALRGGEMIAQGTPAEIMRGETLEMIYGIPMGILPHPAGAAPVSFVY
T1 sequence (chain, His-tag labeled with the red-tris-NTA 2nd generation dye (in the MST)) 2: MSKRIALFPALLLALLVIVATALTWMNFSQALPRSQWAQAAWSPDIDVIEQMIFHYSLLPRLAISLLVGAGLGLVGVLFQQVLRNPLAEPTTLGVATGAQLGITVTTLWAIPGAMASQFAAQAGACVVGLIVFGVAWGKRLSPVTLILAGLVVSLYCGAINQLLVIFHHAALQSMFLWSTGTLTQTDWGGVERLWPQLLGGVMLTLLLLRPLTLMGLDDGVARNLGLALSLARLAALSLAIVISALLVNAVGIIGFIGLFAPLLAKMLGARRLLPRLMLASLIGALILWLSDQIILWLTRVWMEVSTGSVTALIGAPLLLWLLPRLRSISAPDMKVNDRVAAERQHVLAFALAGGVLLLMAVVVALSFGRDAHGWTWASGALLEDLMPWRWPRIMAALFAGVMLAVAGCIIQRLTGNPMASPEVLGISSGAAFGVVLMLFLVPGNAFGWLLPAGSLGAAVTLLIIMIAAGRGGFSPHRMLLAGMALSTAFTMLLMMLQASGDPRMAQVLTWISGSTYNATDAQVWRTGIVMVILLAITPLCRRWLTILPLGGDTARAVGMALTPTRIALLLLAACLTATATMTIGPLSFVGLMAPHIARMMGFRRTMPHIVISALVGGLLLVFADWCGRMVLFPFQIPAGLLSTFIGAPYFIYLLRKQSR

[2] = molecular target: T2, FhuCB with FhuB R390 mutated to Ala (Escherichia coli) (UniProt P07821+P06972)
T2 sequence (chain, His-tag labeled with the red-tris-NTA 2nd generation dye (in the MST)) 1: T1 sequence (chain, His-tag labeled with the red-tris-NTA 2nd generation dye (in the MST)) 1
T2 sequence (chain, His-tag labeled with the red-tris-NTA 2nd generation dye (in the MST)) 2: T1 sequence (chain, His-tag labeled with the red-tris-NTA 2nd generation dye (in the MST)) 2 with A170D, A171Q, R390A

[3] = molecular target: T3, FhuCB subcomplex (wild type; membrane subunit FhuB and ATPase FhuC) (Escherichia coli) (UniProt P07821+P06972)
T3 sequence (chain, His-tag labeled with the red-tris-NTA 2nd generation dye (in the MST)) 1: T1 sequence (chain, His-tag labeled with the red-tris-NTA 2nd generation dye (in the MST)) 1
T3 sequence (chain, His-tag labeled with the red-tris-NTA 2nd generation dye (in the MST)) 2: T1 sequence (chain, His-tag labeled with the red-tris-NTA 2nd generation dye (in the MST)) 2 with A170D, A171Q

Measured: binding

B1: FhuD (separately expressed periplasmic substrate-binding protein) (protein, UniProt P07822 31-296)
chain: AAIDPNRIVALEWLPVELLLALGIVPYGVADTINYRLWVSEPPLPDSVIDVGLRTEPNLELLTEMKPSFMVWSAGYGPSPEMLARIAPGRGFNFSDGKQPLAMARKSLTEMADLLNLQSAAETHLAQYEDFIRSMKPRFVKRGARPLLLTTLIDPRHMLVFGPNSLFQEILDEYGIPNAWQGETNFWGSTAVSIDRLAAYKDVDVLCFDHDNSKDMDALMATPLWQAMPFVRAGRFQRVPAVWFYGATLSAMHFVRVLDNAIGGKA
binds: all assays above
